# Results of single-concentration screens

From ChEMBL document CHEMBL3988442, “University of Dundee, Small-Polar-MMV Screening Library” (2021).

T. brucei: 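Whole-parasite assay of Trypanosoma brucei over 72 hours; the read-out is not stated. Compounds at 30 µM. The record gives no direction; compounds that gave an IC50 in retests scored well above the rest, so higher reads as stronger inhibition. Values scatter widely below zero; nearly all retest evidence comes from the higher of the two concentrations used. Size under these conditions: about 64,000 compounds, about 940 of them at 50% or above in at least one test.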
Leishmania in macrophages: 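Cell assay of Leishmania donovani living inside macrophages; the read-out is not stated. Compounds at 30 µM. Direction is inferred from retests: higher values go with stronger inhibition. Size under these conditions: about 69,000 compounds, about 1,000 of them at 50% or above in at least one test.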

The filed quantity is “Percent Effect” (%). The controls that fix the scale are not given in the record; negative values are as filed. The compounds are a random part of those screened.

* Cn1cncc1CNC1CC2(CCN(CC3CC3)CC2)c2ccccc21.O=C(O)C(F)(F)F.O=C(O)C(F)(F)F (stereo not shown) : T. brucei: -42.42%; Leishmania in macrophages: 22.11%
* O=C(c1ccc[nH]1)N1CCCC(c2cc(C(F)(F)F)[nH]n2)C1 (stereo not shown) : T. brucei: 38.21%; Leishmania in macrophages: 44.22%
* O=C(NCCCNc1ccc(C(F)(F)F)cn1)c1ccc2c(c1)OCO2 : Leishmania in macrophages: 43.27%
* O=C(O)c1nnn(Cc2cccc(C(F)(F)F)c2)c1-c1cccnc1 : T. brucei: 0.4034%; Leishmania in macrophages: -7.575%
* CN(CCNC(=O)N1CCCC1)C(=O)OC(C)(C)C : T. brucei: -14.22%; Leishmania in macrophages: 3.775%
* CCn1c(C)nnc1SCCNC(=O)c1cccc2ccnn12 : Leishmania in macrophages: -48.93%
* CC1(c2ccccc2)CCC(=O)N(CCN2CCOCC2)C1 (stereo not shown) : T. brucei: 4.429%; Leishmania in macrophages: 42.11%
* CCN(C)c1ncnc2c1CCN(Cc1ccc(OC)cc1)CC2.O=C(O)C(F)(F)F.O=C(O)C(F)(F)F : T. brucei: -36.74%; Leishmania in macrophages: -3.134%
* CC(C(=O)NCC(C)(C)c1ccc2c(c1)OCO2)n1ccnc1 (stereo not shown) : T. brucei: -35.36%; Leishmania in macrophages: 20.64%
* CN1CCCN(Cn2nc(-c3ccccc3F)ccc2=O)CC1 : T. brucei: -7.545%; Leishmania in macrophages: -26.31%
* [H][C@]12CCN(Cc3nccs3)[C@@]1([H])C[C@H](C(=O)N1CCN(C)CC1)O2 : T. brucei: -51.58%; Leishmania in macrophages: 1.102%
* COc1cc(CNCc2c(C(C)C)nn(C)c2N(C)C)ccn1 : T. brucei: 8.886%; Leishmania in macrophages: 17.98%
* N#Cc1c(C2CC2)cc(-c2ccc(F)c(F)c2)nc1N : T. brucei: -90.74%; Leishmania in macrophages: 16.62%
* O=C(O)C(F)(F)F.[H][C@@]12CCN(C3CCCC3)C[C@]1([H])OCCN(Cc1ccc(OC)cc1)C2=O : T. brucei: -18.65%; Leishmania in macrophages: -10.54%
* CCC(=O)NCC(=O)NCC1(O)CCC(C(C)(C)C)CC1 (stereo not shown) : T. brucei: -14.67%; Leishmania in macrophages: 2.68%
* Cc1ncc(C(=O)NCCNc2ncccn2)s1 : T. brucei: -56.05%; Leishmania in macrophages: 16.28%
* Cc1nc(C)n(C2CCCN(C(=O)c3csnn3)C2)n1 (stereo not shown) : T. brucei: -21.33%; Leishmania in macrophages: -3.615%
* CCn1cc(NC(=O)C2CCN(Cc3noc(C4CC4)n3)CC2)cn1 : T. brucei: 12.2%; Leishmania in macrophages: 27.57%
* CCOCC(O)CN1CCN(C(=O)C2CCC2)CC1 (stereo not shown) : T. brucei: -31.32%; Leishmania in macrophages: 23.63%
* CN(Cc1ccccc1Br)C(=O)Cn1nc(-c2ccc(F)cc2)oc1=O : T. brucei: -4.757%; Leishmania in macrophages: 17.04%
* CSCCC(=O)N1CCCC(n2ccnc2)C1 (stereo not shown) : Leishmania in macrophages: 16.84%
* [H][C@]12CC[C@@]3(N=C(c4ccccc4)NC3=O)[C@@]1([H])CN(C(=O)c1ccoc1)C2 : T. brucei: -17.79%; Leishmania in macrophages: -19.61%
* CCSc1ccc(C(=O)N2CCC3(CC2)[C@H](O)C[C@@H]3O)s1 : T. brucei: 8.116%; Leishmania in macrophages: 32.16%
* CC(O)c1cccc(N2CCC3(CCC(=O)N(CC(N)=O)C3)CC2)n1 (stereo not shown) : T. brucei: -8.693%; Leishmania in macrophages: 28.28%
* O=C(O)C(F)(F)F.O=C1CCCN1Cc1nnc2n1CCN(Cc1ccco1)CC2 : T. brucei: -44.37%; Leishmania in macrophages: 6.454%
* Cc1ccc2nc(CSCC(=O)Nc3nnc(C(C)C)s3)cc(=O)n2c1 : T. brucei: -16.6%; Leishmania in macrophages: 0.2844%
* O=C(NCC(F)(F)F)c1ccncc1 : T. brucei: -41.24%; Leishmania in macrophages: 80.67%
* COCCN1CCOCC12CCN(C(=O)c1cccnc1)CC2.O=C(O)C(F)(F)F : T. brucei: 17.23%; Leishmania in macrophages: 5.912%
* CC(C)c1nnc(NC(=O)NCc2ccc(CO)c(F)c2)s1 : T. brucei: 20.17%; Leishmania in macrophages: -20.82%
* Cc1nn(C)c(C)c1C1CCCN1C(=O)CCc1ccco1 (stereo not shown) : Leishmania in macrophages: 25.39%
* CC(C)N1CCOC[C@H]1c1nc(C(C)(C)C)c[nH]1 : T. brucei: -4.241%; Leishmania in macrophages: 10.87%
* Cc1ccsc1C(=O)N1CC[C@@H](N(C)C)[C@@H]1Cc1cnn(C)c1.O=C(O)C(F)(F)F : T. brucei: -150%; Leishmania in macrophages: 18.97%
* c1ccc(-n2ncc(CN3CCCC3Cn3cccn3)n2)cc1 (stereo not shown) : T. brucei: 6.485%; Leishmania in macrophages: -12.82%
* Cc1ccc(CN2CCNC(=O)C2CC(=O)N2CCSCC2)o1 (stereo not shown) : T. brucei: -32.53%; Leishmania in macrophages: 11.76%
* Cc1ccc2c(n1)N(Cc1cccnc1)CCN(Cc1cnn(C)c1)C2 : T. brucei: 0.1998%; Leishmania in macrophages: 76.22%
* N#Cc1ccccc1N1CCC(Nc2nccnc2C#N)CC1 : T. brucei: -68.84%; Leishmania in macrophages: -4.695%
* Cc1ccc(C)c(CSc2nnc(C(N)C(C)C)o2)c1.Cl (stereo not shown) : T. brucei: -51.12%; Leishmania in macrophages: -13.85%
* CN(Cc1nnc(-c2ccco2)o1)C1CCCN(c2cccnn2)C1 (stereo not shown) : T. brucei: -22.34%; Leishmania in macrophages: 15.56%
* [H][C@@]12CN(C(=O)Cc3cccs3)C[C@]1([H])OCCN2Cc1csc(C)n1 : T. brucei: -113.8%; Leishmania in macrophages: 21.51%
* CC(C)(C)OC(=O)N1CCN(C(=O)c2sccc2C2CC2)CC1 : T. brucei: 15.55%; Leishmania in macrophages: -3.088%
* O=C(O)C(F)(F)F.O=C1CC(c2ccccc2)C2(CCN(Cc3nccs3)CC2)N1 (stereo not shown) : T. brucei: 24.52%; Leishmania in macrophages: 4.24%
* COCCS(=O)(=O)NCc1ccc(N(C)C)c(C)c1 : T. brucei: -9.581%; Leishmania in macrophages: 20.68%
* CC(C(=O)NC1CC1)S(=O)(=O)Cc1noc(C(C)(C)C)n1 (stereo not shown) : T. brucei: -32.16%; Leishmania in macrophages: 11.79%
* O=C(c1ccoc1)N1CCc2ncc(Cn3cccn3)n2CC1 : T. brucei: -11.59%; Leishmania in macrophages: 3.155%
* Cc1nc(CN(C)C2CCN(CC3CCOCC3)C2)no1 (stereo not shown) : T. brucei: 2.18%; Leishmania in macrophages: 37.48%
* O=C([C@@H]1CCCO1)N1CCOCC2(CCN(Cc3cccnc3)C2)C1 (stereo partly shown) : T. brucei: -41.88%; Leishmania in macrophages: 28.44%
* CCn1ncc2c1C(COC)N(C(=O)CCc1ccccc1)CC2.O=C(O)C(F)(F)F (stereo not shown) : T. brucei: -62.76%; Leishmania in macrophages: 6.286%
* N#Cc1cccc(NS(=O)(=O)c2ccc(C(=O)O)cc2F)c1 : T. brucei: -0.8364%; Leishmania in macrophages: 15.41%